Values from PubChem BioAssay AID1259254 (NCATS, 2017)
Purpose: 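Genome-wide screen for genes that prevent DNA re-replication in cancer cells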 (primary screen). Cell system: human HCT116 colorectal cancer cells. Knock-down reagent: single siRNA against human genes. Timing: 3 days. Read-out: 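Nuclei stained with Hoechst and imaged; cell-cycle phase assigned by DNA content; G2 share scaled per plate, non-targeting siRNA 0%, GMNN siRNA 100%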. Scale: G2 robust z-score and G2 cells, % of GMNN control: higher = more G2 cells, more excess DNA replication; raw share of cells in G2: higher = larger share of cells with G2 DNA content. Call rule: 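An siRNA counts as active if its G2 robust z-score lies at least 5 MADs above the screen median; here such calls match roughly 38% of GMNN control or more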.
Shown is an unselected part of about 59,000 deposited reagents. About 1,550 of all reagents (2.6%) were called active. 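G2 share is only a proxy for re-replication; each gene was hit by three separate siRNAs, and active genes were retested.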 The raw values are shown without normalisation. The numbers tell different reagents against one gene apart. Reagent sequences are not shown. The record does not give: the amount of reagent.

no.	target	reagent no.	G2 robust z-score	G2 cells, % of GMNN control	raw share of cells in G2 (%)	activity call
1	GSG1L	1	0	2.97	4.1	inactive
2	GSG1L	2	0.379	5.63	5.72	inactive
3	GSG1L	3	7.63	56.6	20.4	active
4	ABHD3	1	3.83	29.9	15.6	inactive
5	ABHD3	2	1.66	14.7	13	inactive
6	ABHD3	3	-0.623	-1.42	4.1	inactive
7	SNAP91	1	-0.477	-0.385	5.16	inactive
8	SNAP91	2	1.98	16.9	11	inactive
9	SNAP91	3	-0.906	-3.41	2.16	inactive
10	ARL4C	1	-0.721	-2.11	3.9	inactive
11	ARL4C	2	-0.56	-0.972	2.87	inactive
12	ARL4C	3	-0.13	2.06	5.98	inactive
13	LOC728145 (retired record)	1	0.115	3.77	4.97	inactive
14	LOC728145 (retired record)	2	1.04	10.3	6.49	inactive
15	LOC728145 (retired record)	3	-0.699	-1.95	2.86	inactive

Next part (4 carried over from the part before).
no.	target	reagent no.	G2 robust z-score	G2 cells, % of GMNN control	raw share of cells in G2 (%)	activity call
12	ARL4C	3	-0.13	2.06	5.98	inactive
13	LOC728145 (retired record)	1	0.115	3.77	4.97	inactive
14	LOC728145 (retired record)	2	1.04	10.3	6.49	inactive
15	LOC728145 (retired record)	3	-0.699	-1.95	2.86	inactive
16	TMEM106B	1	-1.28	-6.07	1.43	inactive
17	TMEM106B	2	-0.336	0.606	4.53	inactive
18	TMEM106B	3	0.185	4.27	4.6	inactive
19	DELEC1	1	-1.02	-4.21	2.25	inactive
20	DELEC1	2	0.718	8.02	7.58	inactive
21	DELEC1	3	4.31	33.3	13.7	inactive
22	ANTXRL	1	-0.452	-0.216	3.53	inactive
23	ANTXRL	2	-0.597	-1.23	2.55	inactive
24	ANTXRL	3	0.253	4.75	4.26	inactive
25	ZBTB38	1	-0.261	1.13	3.48	inactive
26	ZBTB38	2	-0.0983	2.28	3.96	inactive
27	ZBTB38	3	-0.259	1.14	3.93	inactive
28	PLCG1	1	-0.423	-0.0104	4.97	inactive
29	PLCG1	2	-0.507	-0.603	4.45	inactive
30	PLCG1	3	0.12	3.81	5.41	inactive
